These are yes or no findings as the source states them, for the method shown. In cells and extracts the contact can be indirect. Some results given as binding are weak or reduced against the parent protein; the word gives no strength. For some of these results: Where a sequence is shown, tags or fusion partners need not be part of it.
Assays:
[1] = molecular target: SIGLEC12-FL–FLAG (transfected into 293T cells) (human) (UniProt Q96PQ1); assay: co-IP; 293T cells cotransfected with SIGLEC12-FL–FLAG and TMPRSS4–HA (plasmids 1:1) for 24 h; anti-FLAG immunoprecipitation; immunoblot
[2] = molecular target: SIGLEC12 (sialic-acid-binding Ig-like lectin 12) (human (endogenous in HT-29)) (UniProt Q96PQ1); assay: co-IP; HT-29 cells treated with TSE for the indicated times; endogenous proteins; lysate incubated with specific primary antibody overnight at 4 °C, then with protein A/G-magnetic beads for 4 h at 4 °C; IgG control antibody lane; immunoblot
[3] = molecular target: SIGLEC12–FLAG (HT-29-SIGLEC12-KO-SIGLEC12–FLAG stable cell line) (human) (UniProt Q96PQ1); assay: co-IP; HT-29-SIGLEC12-KO-SIGLEC12–FLAG stable cells treated with TSE (indicated times or 4 h), with or without NSA (2 μM) cotreatment; SIGLEC12–FLAG immunoprecipitated on anti-FLAG beads (eluted with FLAG peptide in Fig. 3h); immunoblot
[4] = molecular target: SIGLEC12–FLAG (transfected into HeLa-RIPK3–HA cells) (human) (UniProt Q96PQ1); assay: co-IP; HeLa-RIPK3–HA cells transfected with SIGLEC12–FLAG for 16 h and treated with TSE for the indicated times; immunoprecipitation and immunoblot

Sequences of proteins named here, by UniProt entry; tags and fusion partners are left off. Residues count along the entry.
UniProt Q96PQ1, residues 19-595: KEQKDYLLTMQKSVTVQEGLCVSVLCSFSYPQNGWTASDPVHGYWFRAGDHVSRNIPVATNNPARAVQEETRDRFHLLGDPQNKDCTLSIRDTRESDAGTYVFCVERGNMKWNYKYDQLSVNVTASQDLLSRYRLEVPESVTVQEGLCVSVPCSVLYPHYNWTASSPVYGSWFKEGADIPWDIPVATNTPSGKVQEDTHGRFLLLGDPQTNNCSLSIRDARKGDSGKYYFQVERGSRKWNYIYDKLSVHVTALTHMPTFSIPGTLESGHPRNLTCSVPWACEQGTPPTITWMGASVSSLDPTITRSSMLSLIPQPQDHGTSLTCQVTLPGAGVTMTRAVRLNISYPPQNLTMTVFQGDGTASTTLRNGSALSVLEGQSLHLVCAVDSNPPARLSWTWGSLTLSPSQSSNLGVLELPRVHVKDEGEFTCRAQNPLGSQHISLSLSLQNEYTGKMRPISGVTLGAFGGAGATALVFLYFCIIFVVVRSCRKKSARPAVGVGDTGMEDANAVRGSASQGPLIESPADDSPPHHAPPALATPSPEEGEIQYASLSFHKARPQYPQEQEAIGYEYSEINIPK
UniProt Q9NRS4: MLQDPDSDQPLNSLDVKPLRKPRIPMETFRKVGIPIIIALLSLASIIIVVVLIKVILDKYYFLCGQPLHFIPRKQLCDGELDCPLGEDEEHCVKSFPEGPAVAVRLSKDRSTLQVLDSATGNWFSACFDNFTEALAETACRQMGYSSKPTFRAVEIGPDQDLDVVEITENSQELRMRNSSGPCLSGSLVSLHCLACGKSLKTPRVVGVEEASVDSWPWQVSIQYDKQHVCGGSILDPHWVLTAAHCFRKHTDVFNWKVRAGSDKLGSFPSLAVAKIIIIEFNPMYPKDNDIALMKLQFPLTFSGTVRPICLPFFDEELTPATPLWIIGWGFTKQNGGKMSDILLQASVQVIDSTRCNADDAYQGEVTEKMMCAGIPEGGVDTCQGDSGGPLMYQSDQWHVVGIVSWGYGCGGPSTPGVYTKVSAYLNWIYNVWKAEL

For “TMPRSS4–HA (from UniProt Q9NRS4 1-437) (enzyme)”, the binding [1] was “binds”.

B1: MLKL (protein, UniProt Q8NB16 1-471)
chain: MENLKHIITLGQVIHKRCEEMKYCKKQCRRLGHRVLGLIKPLEMLQDQGKRSVPSEKLTTAMNRFKAALEEANGEIEKFSNRSNICRFLTASQDKILFKDVNRKLSDVWKELSLLLQVEQRMPVSPISQGASWAQEDQQDADEDRRAFQMLRRDNEKIEASLRRLEINMKEIKETLRQYLPPKCMQEIPQEQIKEIKKEQLSGSPWILLRENEVSTLYKGEYHRAPVAIKVFKKLQAGSIAIVRQTFNKEIKTMKKFESPNILRIFGICIDETVTPPQFSIVMEYCELGTLRELLDREKDLTLGKRMVLVLGAARGLYRLHHSEAPELHGKIRSSNFLVTQGYQVKLAGFELRKTQTSMSLGTTREKTDRVKSTAYLSPQELEDVFYQYDVKSEIYSFGIVLWEIATGDIPFQGCNSEKIRKLVAVKRQQEPLGEDCPSELREIIDECRAHDPSVRPSVDEILKKLSTFSK
With B1 the binding [2] was “binds” and the binding [3] was “binds”.

B2: MLKL (in HeLa-RIPK3–HA cells) (protein, UniProt Q8NB16 1-471)
chain: MENLKHIITLGQVIHKRCEEMKYCKKQCRRLGHRVLGLIKPLEMLQDQGKRSVPSEKLTTAMNRFKAALEEANGEIEKFSNRSNICRFLTASQDKILFKDVNRKLSDVWKELSLLLQVEQRMPVSPISQGASWAQEDQQDADEDRRAFQMLRRDNEKIEASLRRLEINMKEIKETLRQYLPPKCMQEIPQEQIKEIKKEQLSGSPWILLRENEVSTLYKGEYHRAPVAIKVFKKLQAGSIAIVRQTFNKEIKTMKKFESPNILRIFGICIDETVTPPQFSIVMEYCELGTLRELLDREKDLTLGKRMVLVLGAARGLYRLHHSEAPELHGKIRSSNFLVTQGYQVKLAGFELRKTQTSMSLGTTREKTDRVKSTAYLSPQELEDVFYQYDVKSEIYSFGIVLWEIATGDIPFQGCNSEKIRKLVAVKRQQEPLGEDCPSELREIIDECRAHDPSVRPSVDEILKKLSTFSK
For B2, the binding [4] was “binds”.

From PMC12779560
